No constants are given. Whether binding was seen depends on the method and setting. Binding seen in cells or lysates may run through a third protein. Some binding calls cover weakened binding; strength is not graded here. Where a sequence is shown, tags or fusion partners need not be part of it.
Target: T1, human organic anion transporting polypeptide 1A2 with N-terminal Flag tag (OATP1A2-N-flag) (human) (UniProt P46721)
T1 sequence: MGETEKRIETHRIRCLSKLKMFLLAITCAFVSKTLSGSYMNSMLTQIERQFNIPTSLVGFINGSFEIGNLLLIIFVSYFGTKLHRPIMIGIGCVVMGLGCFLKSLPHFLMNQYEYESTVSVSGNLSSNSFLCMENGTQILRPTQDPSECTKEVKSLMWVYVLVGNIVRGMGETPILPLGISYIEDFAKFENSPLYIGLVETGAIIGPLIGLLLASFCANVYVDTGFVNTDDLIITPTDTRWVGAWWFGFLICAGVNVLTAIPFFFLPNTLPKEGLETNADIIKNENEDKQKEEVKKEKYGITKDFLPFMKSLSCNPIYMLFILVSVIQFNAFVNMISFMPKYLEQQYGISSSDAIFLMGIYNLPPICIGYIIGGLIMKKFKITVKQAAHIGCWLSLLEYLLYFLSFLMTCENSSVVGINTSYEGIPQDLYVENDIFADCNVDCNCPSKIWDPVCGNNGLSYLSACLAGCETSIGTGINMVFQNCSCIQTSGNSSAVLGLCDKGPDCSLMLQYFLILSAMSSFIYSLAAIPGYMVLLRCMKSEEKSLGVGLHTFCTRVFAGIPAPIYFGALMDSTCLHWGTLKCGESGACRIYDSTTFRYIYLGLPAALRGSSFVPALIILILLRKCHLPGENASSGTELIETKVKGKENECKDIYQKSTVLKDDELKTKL
Experiment: co-IP; HEK-293 cells co-transfected with OATP1A2-N-flag and PDZK1-N-myc or NHERF1-N-myc; lysed 24 h later in 10 mM Tris/HCl, 10 mM NaCl, 0.5-1% Triton X-100, 2 mM EDTA, 10% glycerol, pH 7.5; precipitated with anti-flag antibody and protein G-agarose at 4°C, blotted with anti-myc

- binding: binds
B1: PDZK1 with N-terminal myc tag (PDZK1-N-myc) (protein, UniProt Q5T2W1 1-519)
chain: MTSTFNPRECKLSKQEGQNYGFFLRIEKDTEGHLVRVVEKCSPAEKAGLQDGDRVLRINGVFVDKEEHMQVVDLVRKSGNSVTLLVLDGDSYEKAVKTRVDLKELGQSQKEQGLSDNILSPVMNGGVQTWTQPRLCYLVKEGGSYGFSLKTVQGKKGVYMTDITPQGVAMRAGVLADDHLIEVNGENVEDASHEEVVEKVKKSGSRVMFLLVDKETDKRHVEQKIQFKRETASLKLLPHQPRIVEMKKGSNGYGFYLRAGSEQKGQIIKDIDSGSPAEEAGLKNNDLVVAVNGESVETLDHDSVVEMIRKGGDQTSLLVVDKETDNMYRLAHFSPFLYYQSQELPNGSVKEAPAPTPTSLEVSSPPDTTEEVDHKPKLCRLAKGENGYGFHLNAIRGLPGSFIKEVQKGGPADLAGLEDEDVIIEVNGVNVLDEPYEKVVDRIQSSGKNVTLLVCGKKAYDYFQAKKIPIVSSLADPLDTPPDSKEGIVVESNHDSHMAKERAHSTASHSSSNSEDTEM

Source: publication PMC3984249
